## Percent effect of library compounds

The values are deposited in ChEMBL (CHEMBL3988442, “University of Dundee, Small-Polar-MMV Screening Library” (2021)).

Mtb cholesterol medium: 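Growth of Mycobacterium tuberculosis over 4 days (cholesterol / DPPC medium with tyloxapol); the read-out is not stated. Compounds at 50 µM. Higher reads as more growth inhibition (inferred: compounds with an IC50 in retests scored well above the rest). About 69,000 compounds were tested under these conditions; 0.54% (about 370) showed 50% or more at least once.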
Mtb glucose medium: 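Phenotypic screen: M. tuberculosis growth, glucose 7H9 medium, 3 days; the read-out is not stated. Compounds at 50 µM. Direction is inferred from retests: higher values go with more growth inhibition. About 69,000 compounds were tested under these conditions; 1.1% (about 760) showed 50% or more at least once.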

The filed quantity is “Percent Effect” (%).
How 0% and 100% were set is not recorded. Most values in the screen are low, and negative values occur.
Compounds were drawn at random from those tested, without regard to their results.
Two or more numbers in one place are separate tests of the same structure; such repeats can differ widely.

| # | Compound | Mtb cholesterol medium | Mtb glucose medium |
|---|---|---|---|
| 1 | `Cc1ccc(CNC(=O)C2CCCCN2C(=O)OC(C)(C)C)cn1` (configuration not stated) | -12.13% | -2.915% |
| 2 | `CC(C)(C)C(=O)N1CCC2(COCc3cnc(N4CCOCC4)nc32)C1` (configuration not stated) | 21.36% | 22.82% |
| 3 | `CCC(CC)CN1CCC2(CCCN(c3ncccn3)C2)C1` (configuration not stated) | -14.02% | -4.928% |
| 4 | `c1ncn(Cc2ccc(CNCc3ccc4c(c3)OCCO4)cc2)n1` | -2.51% | -7.353% |
| 5 | `O=C(NCc1cccnc1-n1cccn1)C1CC(=O)N(CC2CC2)C1` (configuration not stated) | 4.575% | -13.2% |
| 6 | `Cn1cnc2cc(CCC(=O)Nc3nc[nH]n3)ccc21` | 7.596% | 10.15% and -3.93% |
| 7 | `O=C(c1cscn1)N1CCC2(CCN(Cc3nccs3)CC2)CC1` | -10.33% and 11.19% | -8.14% |
| 8 | `COc1c(CNCc2ccc(Cn3ccnc3)cc2)c(C)nn1C` | 7.694% | 0.8081% and 9.995% |
| 9 | `CCN(CC)C(=O)CNC(=O)N1CCC(c2ccc(OC)cc2)C1` (configuration not stated) | 31.36% | -6.904% and 4.4% |
| 10 | `COCCN(CCOC)C(=O)Nc1cc(C(F)(F)F)c[nH]c1=O` | 0.2988% | 11.08% |
| 11 | `COc1ccc(C(=O)N2CCCC(CNS(C)(=O)=O)C2)cc1F` (configuration not stated) | 15.52% | 4.59% |
| 12 | `O=C(NCCSC1CCCC1)c1cnccn1` | -13.46% | -23.26% |
| 13 | `CCc1ncc2c(n1)CN(c1cc(NC3CC3)nc(N)n1)C2` | -1.684% | 11.56% |
| 14 | `CC(C)N(CCS(C)(=O)=O)Cc1csc(Cc2ccc(Cl)cc2)n1` | -2.895% | 11.9% |
| 15 | `COc1cccc(-n2c(C)cc(C(=O)NS(C)(=O)=O)c2C)c1` | -3.654% | -8.427% |
| 16 | `O=C(CC1CC1)N1CCC2(CC(=O)N(c3cccc(F)c3)C2)C1` (configuration not stated) | 1.06% and 8.218% | 24.51% and 5.46% |
| 17 | `CCCS(=O)(=O)N1CCC2(CCC(=O)N(CCc3ccccc3)C2)CC1` | 1.105% | -0.305% and 9.904% |
| 18 | `c1cc(C2CCN(c3cnccn3)CC2)ncn1` | -10.01% and -1.61% | -9.746% |
| 19 | `CN1C(=O)CC(c2cnn(C)c2)C12CCN(C(=O)c1ccncc1)CC2.O=C(O)C(F)(F)F` (configuration not stated) | -13.09% | -32.17% |
| 20 | `CCOC(=O)c1sc2ccsc2c1CN.Cl` | 0.7005% | 13.01% |
| 21 | `Cc1nc(CN2CCCN(C(=O)c3ccn(C)c(=O)c3)CC2)cs1` | -18.2% | -16.43% |
| 22 | `Cc1cccc(-c2nc(N)nc3c2CN(C(=O)C2CCCC2)C3C)c1` (configuration not stated) | -4.532% | 11.96% and 16.73% |
| 23 | `CCN1CCN(C(=O)c2ccn(C)c(=O)c2)CC1` | -5.013% | -37.73% |
| 24 | `CC(CS(C)(=O)=O)N(C(=O)c1ccc(Cl)s1)C1CC1` (configuration not stated) | 3.342% | 26.73% |
| 25 | `CCC(=O)N1CCCC(C(=O)N2CCN(c3cnn(C)c(=O)c3)CC2)C1` (configuration not stated) | -0.633% and 6.523% | -1.734% |
| 26 | `CCn1cc2c(n1)CN(Cc1cnn(C)c1)CC2COCC1CC1.O=C(O)C(F)(F)F` (configuration not stated) | -27.63% | 16.52% |
| 27 | `Cc1cccc(N(CCC#N)S(=O)(=O)CC2CCCCO2)c1` (configuration not stated) | -29.07% | 4.903% and -42.09% |
| 28 | `CCN(C)c1ncnc2c1CCN(C(=O)COC)CC2.O=C(O)C(F)(F)F` | -3.323% | 20.37% and 11.07% |
| 29 | `CCC(=O)N1CCC(NCc2cc(C(F)(F)F)ccc2Cl)C1` (configuration not stated) | -8.352% | -10.76% |
| 30 | `O=C(c1ccnc(-n2ccnc2)c1)N1CCCC(n2cccn2)C1` (configuration not stated) | -3.495% | 14.46% |
| 31 | `CC(C)n1ccnc1C1CCN(c2nccc(C(F)(F)F)n2)CC1` | -6.367% | 3.225% |
| 32 | `O=C(c1c(O)cnc2ccccc12)N1CCCSCC1` | -16.29% | 1.53% |
| 33 | `Cc1sc(-c2ccco2)nc1C(=O)N(CC(N)=O)C1CCCC1` | -11.86% | -6.364% |
| 34 | `CC(C)n1nc(CNc2ncccn2)c2c1CN(S(C)(=O)=O)CC2` | -1.715% | 9.233% |
| 35 | `CO[C@H]1CO[C@@]2(CCCN(C(=O)N3CCCC3)C2)C1` | -1.679% | 8.784% |
| 36 | `[H][C@@]12CS(=O)(=O)C[C@]1([H])N(Cc1nccn1C)CCN2CC=C(C)C` | 2.121% | -0.8484% and 3.074% |
| 37 | `N#CCCN(CC(=O)Nc1ccc(Br)cc1Cl)Cc1cccnc1` | -15.33% | 17.44% and -12.69% |
| 38 | `COCCNC(=O)Cn1cc2c(n1)c(C)nn2C` | -0.2418% | -2.679% |
| 39 | `Cc1cc(CN(C)c2nc(-c3ccco3)nc3c2CCN(C)CC3)on1` | 2.912% | 4.936% |
| 40 | `CCn1c(C)nnc1SCCNC(=O)c1cnc(C(C)(C)C)nc1O` | 3.028% | 8.602% |
| 41 | `[H][C@]12CCC[C@@H](CNc3ccccn3)[C@@]1([H])CN(Cc1csnn1)C2` | -9.484% and 1.864% | -2.114% and 8.35% |
| 42 | `O=C(O)C(F)(F)F.O=C(O)C(F)(F)F.[H][C@]12CCN(c3ncc(F)cn3)[C@@]1([H])CC[C@H](COCc1ccccn1)O2` | -18.71% | -2.542% |
| 43 | `c1ccc(CCc2noc(CN3CCC(N4CCSCC4)CC3)n2)cc1` | 4.702% | 16.14% |
| 44 | `CC(O)C1CCN(Cc2nccn2CC(F)(F)F)CC1` (configuration not stated) | -6.692% | -1.348% |
| 45 | `CC(CO)NC(=O)Nc1ccc(COC2CCCC2)cc1` (configuration not stated) | -6.147% | -3.573% |

The first 5 entries again:

| Compound | Mtb cholesterol medium | Mtb glucose medium |
|---|---|---|
| `Cc1ccc(CNC(=O)C2CCCCN2C(=O)OC(C)(C)C)cn1` (configuration not stated) | -12.13% | -2.915% |
| `CC(C)(C)C(=O)N1CCC2(COCc3cnc(N4CCOCC4)nc32)C1` (configuration not stated) | 21.36% | 22.82% |
| `CCC(CC)CN1CCC2(CCCN(c3ncccn3)C2)C1` (configuration not stated) | -14.02% | -4.928% |
| `c1ncn(Cc2ccc(CNCc3ccc4c(c3)OCCO4)cc2)n1` | -2.51% | -7.353% |
| `O=C(NCc1cccnc1-n1cccn1)C1CC(=O)N(CC2CC2)C1` (configuration not stated) | 4.575% | -13.2% |